Results are given in words; binding and its absence hold for the method and conditions named.
Target: human sigma-1 receptor chaperone domain (residues 112-223) (human) (UniProt Q99720)
Experiment: condition: 1:1 molar ratio, in the presence of 2.5 mM calcium; NMR titration; 15N-labelled S1R(cd) (~250 uM) in DPC micelles titrated with unlabelled BiP constructs; 1H,15N SOFAST-HMQC, cross-peak intensities and chemical shifts; 100 mM NaCl, 30 mM DPC, 5 mM 2-mercaptoethanol, 20 mM HEPES pH 6.5, 37 C; full-length BiP without and with 2.5 mM calcium chloride, NBD without calcium, SBD with 2.5 mM calcium; both purified

By UniProt entry, the sequences of proteins in these tests, tags left out. Residues count along the entry.
UniProt Q99720, residues 112-223: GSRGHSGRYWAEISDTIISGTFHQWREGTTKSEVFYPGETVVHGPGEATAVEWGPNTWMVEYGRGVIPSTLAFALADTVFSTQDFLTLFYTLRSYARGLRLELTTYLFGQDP
UniProt P11021, residues 418-638: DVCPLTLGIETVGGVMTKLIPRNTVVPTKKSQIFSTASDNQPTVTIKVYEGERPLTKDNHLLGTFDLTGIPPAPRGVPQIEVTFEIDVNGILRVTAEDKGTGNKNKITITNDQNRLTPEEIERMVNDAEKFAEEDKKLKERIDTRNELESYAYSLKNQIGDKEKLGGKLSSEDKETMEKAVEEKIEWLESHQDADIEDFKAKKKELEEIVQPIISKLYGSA

Question: “isolated substrate binding domain of human BiP (residues 418-638) (from UniProt P11021 418-638) (domain or fragment)” was tested. Which binding did it give?
Answer: Its binding is “no binding”.

Source: publication PMC3774411, “Characterization of the Human Sigma-1 Receptor Chaperone Domain Structure and Binding Immunoglobulin Protein (BiP) Interactions*” (The Journal of Biological Chemistry, 2013)
